Assay results published in US20250041270A1, “SMALL MOLECULE DRUGS THAT REDUCE PROTEIN AGGREGATION” (BIOVENTURES, LLC, priority 2021, published 2025).

Tested on: SH-SY5Y-APPSw cells
Test: Proteomic identification of proteins in sarkosyl-insoluble aggregates
Type: cell-based, human
Description: Isolation of aggregate proteins. Cultured human cells were collected, flash frozen in liquid nitrogen, and homogenized at 0° C. in the presence of buffer containing nonionic detergent (1% v/v NP40, 20-mM Hepes pH 7.4, 300-mM NaCl, 2-mM MgCl2, and protease/phosphatase inhibitors [CalBiochem]). Lysates were centrifuged (5 min, 3000 rpm at 4° C.) to remove debris. After removal of cytosolic proteins (soluble in 1% NP40 nonionic detergent) by centrifugation (18 min, 13,000×g at 4° C.), protein pellets were brought to pH 7.4 with 0.1-M HEPES buffer containing 1% v/v sarkosyl(sodium lauryl sarcosinate) and 5-mM EDTA, and centrifuged 30 min at 100,000×g. Pellet proteins (the sarkosyl-insoluble fraction) were resuspended in Laemmli loading buffer (containing 50-mM dithiothreitol and 2% v/v SDS, sodium dodecyl sulfate), heated 5 min at 95° C. to dissolve proteins soluble in this buffer, and separated by electrophoresis on 4-20% polyacrylamide gradient gels containing 1% v/v SDS. Gels were stained with SYPRO Ruby (ThermoFisher) or Coomassie Blue to visualize protein. Gel lanes were robotically cut into 1-mm slices, and digested thoroughly with trypsin. Proteins in each slice were identified by mass spectrometry as described previously (Ayyadevara et al., 2015; Ayyadevara et al., 2016a; Ayyadevara et al., 2016b; Ayyadevara et al., 2016c; Ayyadevara et al., 2016d; Balasubramaniam et al., 2018).

## O=C(NC[C@H]1CC[C@H](CO)CC1)c1ccc(N2CCCC2)c(Cl)c1 [MSR1, 3-chloro-N-{[trans-4-(hydroxymethyl)cyclo-hexyl]methyl}-4-pyrrolidin-1-ylbenzamide]
48 hr, 1-μM MSR1
  number of aggregate proteins not detected after both GFAP siRNA and MSR1 (proteomic overlap): 251 proteins
Linear regression, P≤3E-280
  correlation R of log2(fold change) of aggregate protein abundance, MSR1 vs GFAP siRNA: 0.77
Proteins >7 spectral counts in control, 0 hits after treatment
  concordance of proteins completely eliminated from aggregates with those eliminated by GFAP siRNA: 87%
